Data reported in patent US20220348676A1.
Results are given in words; binding and its absence hold for the method and conditions named. Some entries that bind do so weakly or less than the wild type. For some of these results: Tags and fused reporters may be left off the sequences shown.

Experiments:
[1] = biological target: T1, canine CD20 tagged with FLAG, overexpressed on NRK/cCD20, Jurkat/cCD20 and EL-4/cCD20 cells (canine) (UniProt Q3C2E2); experiment: flow cytometry on Jurkat/cCD20 cells
T1 sequence (looked up): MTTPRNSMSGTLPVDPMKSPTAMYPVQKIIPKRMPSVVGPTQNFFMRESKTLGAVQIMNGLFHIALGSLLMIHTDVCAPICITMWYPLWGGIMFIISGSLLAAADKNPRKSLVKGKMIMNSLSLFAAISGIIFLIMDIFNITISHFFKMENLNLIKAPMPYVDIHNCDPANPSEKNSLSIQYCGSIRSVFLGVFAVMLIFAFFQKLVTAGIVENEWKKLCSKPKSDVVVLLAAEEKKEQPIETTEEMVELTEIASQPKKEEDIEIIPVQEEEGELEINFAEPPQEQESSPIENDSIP

[2] = biological target: T1, canine CD20 tagged with FLAG, overexpressed on NRK/cCD20, Jurkat/cCD20 and EL-4/cCD20 cells (canine); experiment: flow cytometry on NRK/cCD20 cells
[3] = biological target: T2, canine CD20 on the canine B-cell lymphoma cell line CLBL-1 (canine) (UniProt Q3C2E2); experiment: flow cytometry on CLBL-1 cells
T2 sequence (looked up): T1 sequence (looked up)

[4] = biological target: T1, canine CD20 tagged with FLAG, overexpressed on NRK/cCD20, Jurkat/cCD20 and EL-4/cCD20 cells (canine); experiment: immunoprecipitation from Jurkat/cCD20 lysate, anti-Flag Western blot

Measured: binding

B1: anti-canine CD20 monoclonal antibody (4E1-7) (antibody, V domains shown)
VH: EVQLVESGGGLVQPGASLKLSCVASGFTFNDYWMSWVRQTPGKTMEWIGDIKYDGSYTNYAPSLKNRFTISRDNAKSTLYLQMSNVRSEDTATYYCTREAYYYSGDYWGQGVMVTVSS
VL: DIVLTQSPALAVSLGQRATISCKTNQNVDYYGNSYMHWYQQKPGQQPKLLIYLASNLASGIPARFSGRGSGTDFTLTIDPVEADDTATYYCQQSRNLPYTFGAGTKLELKR
binds: all assays above
